From patent publication US20100137381A1, “ACETAMIDE DERIVATIVES AS POTASSIUM CHANNEL MODULATORS” (NeuroSearch A/S, priority 2007, published 2010)
Some results were stated once for a whole list of compounds, not compound by compound.

Chains of the proteins cited; added tags and fusions are not shown. Lines headed by an entry give the natural chain unless they say otherwise; changes in a name come on top.
UniProt Q12791: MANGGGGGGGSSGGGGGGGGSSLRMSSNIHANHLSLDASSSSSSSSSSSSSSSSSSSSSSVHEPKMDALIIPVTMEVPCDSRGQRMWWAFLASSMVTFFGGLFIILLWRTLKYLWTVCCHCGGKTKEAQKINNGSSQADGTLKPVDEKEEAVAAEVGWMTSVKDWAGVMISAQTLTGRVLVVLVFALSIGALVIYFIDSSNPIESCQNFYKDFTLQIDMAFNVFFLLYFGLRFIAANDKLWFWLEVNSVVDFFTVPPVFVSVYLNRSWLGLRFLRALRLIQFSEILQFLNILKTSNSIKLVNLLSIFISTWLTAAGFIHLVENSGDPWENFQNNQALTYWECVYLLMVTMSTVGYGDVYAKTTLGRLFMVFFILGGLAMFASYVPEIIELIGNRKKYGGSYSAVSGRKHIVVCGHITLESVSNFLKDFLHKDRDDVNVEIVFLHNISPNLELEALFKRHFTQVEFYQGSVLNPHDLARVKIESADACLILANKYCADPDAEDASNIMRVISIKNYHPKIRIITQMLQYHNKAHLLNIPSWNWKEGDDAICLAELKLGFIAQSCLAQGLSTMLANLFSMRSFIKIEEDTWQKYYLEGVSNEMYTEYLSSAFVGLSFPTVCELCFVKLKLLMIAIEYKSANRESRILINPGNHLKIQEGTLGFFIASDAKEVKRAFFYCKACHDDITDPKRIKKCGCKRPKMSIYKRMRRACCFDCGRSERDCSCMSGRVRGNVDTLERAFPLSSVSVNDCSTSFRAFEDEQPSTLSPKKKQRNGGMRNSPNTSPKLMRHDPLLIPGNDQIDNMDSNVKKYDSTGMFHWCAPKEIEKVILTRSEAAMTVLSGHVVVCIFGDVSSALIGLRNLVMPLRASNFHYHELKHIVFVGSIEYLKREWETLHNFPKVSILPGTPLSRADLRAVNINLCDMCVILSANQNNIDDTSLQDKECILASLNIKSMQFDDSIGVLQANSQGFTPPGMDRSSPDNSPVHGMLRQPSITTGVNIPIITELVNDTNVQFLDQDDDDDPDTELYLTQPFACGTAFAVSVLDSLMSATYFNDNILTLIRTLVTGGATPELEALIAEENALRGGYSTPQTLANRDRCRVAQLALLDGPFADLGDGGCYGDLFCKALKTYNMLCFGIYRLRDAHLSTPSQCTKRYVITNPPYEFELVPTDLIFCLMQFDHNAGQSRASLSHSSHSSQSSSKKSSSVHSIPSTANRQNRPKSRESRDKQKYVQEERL

Target: T1, BK channels heterologously expressed in Xenopus laevis oocytes (Homo sapiens, UniProt Q12791)
T1 construct: expressed in transfected cells; host or cells: Xenopus laevis oocytes
Assay: BK channel activation, two-electrode voltage clamp in Xenopus laevis oocytes
Assay type: cell-based
Details: after compound application (Compound A 3 μM, Compound B 10 μM)
Procedure: In this example the BK channel opening activity of two acetamide derivatives of to the invention, i.e. 2-(3,5-difluoro-phenyl)-N-[3-(5-oxo-4,5-dihydro-[1,2,4]oxadiazol-3-yl)-4′-trifluoromethyl-biphenyl-4-yl]-acetamide (Compound 7), and 2-(3,5-bis-trifluoromethyl-phenyl)-N-[4-bromo-2-(1H-tetrazol-5-yl)-phenyl]-acetamide (Compound 2) herein designated Compound A and Compound B, respectively, is determined using BK channels heterologously expressed in Xenopus laevis oocytes.
The electrical current through the BK channel is measured by conventional two-electrode voltage clamp. BK current is activated by repeated step protocols. In brief, this protocol goes from a resting membrane potential of −40 mV lasting for 5 s to a depolarised step to +20 mV lasting for 1 s. The protocol was repeated continuously.
Having reached a stable current level, Compound A (3 μM) and Compound B (10 μM), respectively, was added. A marked increase in the current activated by depolarisation could be observed. The BK current activity returned to baseline after approximately 30-80 seconds of wash. In summary BK current was increased by 367±92% in the presence of 3 μM of Compound A (n=3, SD value), and 327±88% in the presence of 10 μM of Compound B.

Structure (SMILES) | time of wash until BK current activity returned to baseline [s]
O=C(Cc1cc(F)cc(F)c1)Nc1ccc(-c2ccc(C(F)(F)F)cc2)cc1-c1noc(=O)[nH]1 [Compound A, 2-(3,5-difluoro-phenyl)-N-[3-(5-oxo-4,5-dihydro-[1,2,4]oxadiazol-3-yl)-4′-trifluoromethyl-biphenyl-4-yl]-acetamide] | 30 to 80
O=C(Cc1cc(C(F)(F)F)cc(C(F)(F)F)c1)Nc1ccc(Br)cc1-c1nnn[nH]1 [Compound B, 2-(3,5-Bis-trifluoromethyl-phenyl)-N-[4-bromo-2-(1H-tetrazol-5-yl)-phenyl]-acetamide] | 30 to 80
